Results deposited as PubChem BioAssay AID1259286 (Sanger Institute, 2017).
The deposit covers 794 reagents; this is a part drawn at random. 17 of them (2.1%) count as active. 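Calls use knock-down alone only; synergy above 0.15 marked separately; viability seems capped at control level; exposure time not given.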 Not stated in the record: the amount of reagent, the time to read-out.

- Purpose: 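Kinome knock-downs lethal on their own or synergistic with anchor drugs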 (primary screen)
- Cells: NCI-H630 human colorectal cancer cells
- Knock-down reagent: siRNA pool against human genes
- Treatment: anchor drugs BYL719 at 1 µM, cetuximab at 5 µg/ml or trametinib at 10 nM, or DMSO vehicle alone; exposure time not given
- Measurement: 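Viability relative to non-targeting pool wells, averaged over replicates, with robust z-score for knock-down alone and a synergy score for each anchor drug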
- Scale: viability z-score, knock-down alone: higher = more viable cells, weaker knock-down effect; viability vs control, knock-down alone: higher = more viable cells; synergy score with trametinib: higher = stronger synergistic killing with trametinib; synergy score with BYL719: higher = stronger synergistic killing with BYL719; synergy score with cetuximab: higher = stronger synergistic killing with cetuximab
- Call rule: 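Essential call: robust z-score of viability with siRNA alone lower than -3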
- Calls: active = essential when knocked down alone; inactive = not essential alone

gene	viability z-score, knock-down alone	viability vs control, knock-down alone (fraction of control)	synergy score with trametinib	synergy score with BYL719	synergy score with cetuximab	Outcome
MYLK4 (myosin light chain kinase family member 4)	0.464	1	0.0565	0.0424	0.0688	inactive
CSNK1A1 (casein kinase 1 alpha 1)	0.464	1	-0.0154	-0.0149	-0.0352	inactive
PRKD3 (protein kinase D3)	-4.24	0.822	-0.0781	-0.122	-0.0442	active
SOS2 (SOS Ras/Rho guanine nucleotide exchange factor 2)	0.464	1	-0.0479	0.0164	0.000161	inactive
EIF2AK4 (eukaryotic translation initiation factor 2 alpha kinase 4)	-2.84	0.875	-0.167	-0.192	-0.0424	inactive
RIOK1 (RIO kinase 1)	0.464	1	-0.0479	-0.0814	0.0538	inactive
MAPKAPK3 (MAPK activated protein kinase 3)	-0.144	0.977	0.00279	0.00811	0.111	inactive
CEP290 (centrosomal protein 290)	0.464	1	0.0386	-0.0814	0.0674	inactive
MAP4K2 (mitogen-activated protein kinase kinase kinase kinase 2)	0.464	1	-0.0479	0.086	0.109	inactive
IRAK1 (interleukin 1 receptor associated kinase 1)	-0.821	0.951	-0.0416	-0.0314	0.0117	inactive
PAK5 (p21 (RAC1) activated kinase 5)	0.464	1	0.035	-0.0429	0.099	inactive
RTN4 (reticulon 4)	0.464	1	-0.0265	-0.0408	0.00428	inactive
PIK3R2 (phosphoinositide-3-kinase regulatory subunit 2)	0.464	1	-0.0479	-0.0814	-0.00658	inactive
IRAK4 (interleukin 1 receptor associated kinase 4)	0.464	1	-0.0468	0.0207	0.003	inactive
GRK6 (G protein-coupled receptor kinase 6)	0.186	0.989	-0.0579	-0.0303	0.0129	inactive
IPPK (inositol-pentakisphosphate 2-kinase)	0.464	1	-0.0479	0.0153	0.0263	inactive
STK24 (serine/threonine kinase 24)	0.464	1	-0.0479	-0.0401	-0.0432	inactive
CDKL4 (cyclin dependent kinase like 4)	0.464	1	-0.0479	0.123	0.0452	inactive
DYRK4 (dual specificity tyrosine phosphorylation regulated kinase 4)	-3.16	0.863	-0.0977	-0.0265	-0.0147	active
STK4 (serine/threonine kinase 4)	0.464	1	-0.0158	0.0119	0.0603	inactive
HUS1 (HUS1 checkpoint clamp component)	-0.522	0.963	-0.0141	-0.038	-0.034	inactive
PFKP (phosphofructokinase, platelet)	0.464	1	-0.0222	0.0423	0.139	inactive
PIK3R1 (phosphoinositide-3-kinase regulatory subunit 1)	0.289	0.993	-0.0436	-0.0872	-0.0465	inactive
TYRO3 (TYRO3 protein tyrosine kinase)	0.359	0.996	-0.0516	-0.0587	0.00807	inactive
MAP3K6 (mitogen-activated protein kinase kinase kinase 6)	0.464	1	-0.0479	-0.0787	0.0365	inactive
SOX9 (SRY-box transcription factor 9)	0.464	1	-0.0479	-0.0305	0.0787	inactive
NEK3 (NIMA related kinase 3)	-0.686	0.957	-0.0893	0.0457	0.0578	inactive
RAF1 (Raf-1 proto-oncogene, serine/threonine kinase)	0.464	1	-0.0354	0.0667	0.14	inactive
PFKFB1 (6-phosphofructo-2-kinase/fructose-2,6-biphosphatase 1)	-1.25	0.935	-0.0417	0.0738	0.051	inactive
MAPK10 (mitogen-activated protein kinase 10)	0.464	1	-0.0479	-0.0814	-0.0571	inactive
MAST1 (microtubule associated serine/threonine kinase 1)	0.464	1	-0.0479	-0.0814	-0.0242	inactive
MYLK3 (myosin light chain kinase 3)	-0.569	0.961	0.00389	-0.117	0.0544	inactive
RPS6KL1 (ribosomal protein S6 kinase like 1)	0.464	1	-0.0479	-0.0814	-0.0047	inactive
ELF3 (E74 like ETS transcription factor 3)	0.0326	0.984	0.0217	-0.0165	0.1	inactive
ERN2 (endoplasmic reticulum to nucleus signaling 2)	0.464	1	-0.0479	-0.0218	0.034	inactive
PRP4K (pre-mRNA processing factor kinase PRP4K)	0.179	0.989	-0.00987	-0.0681	0.0423	inactive
CSNK1A1L (casein kinase 1 alpha 1 like)	-0.614	0.959	0.0483	-0.00766	-0.0771	inactive
STK35 (serine/threonine kinase 35)	0.464	1	-0.0479	0.0294	0.0616	inactive
MYO3B (myosin IIIB)	-0.549	0.962	-0.0843	-0.0991	-0.0305	inactive
NRBP1 (nuclear receptor binding protein 1)	0.464	1	-0.0311	0.022	0.00422	inactive
DGKQ (diacylglycerol kinase theta)	0.464	1	-0.0349	-0.0156	0.115	inactive
MKNK2 (MAPK interacting serine/threonine kinase 2)	0.464	1	-0.0479	-0.0814	-0.044	inactive
PANK1 (pantothenate kinase 1)	0.464	1	-0.0479	-0.0814	-0.0806	inactive
PRKDC (protein kinase, DNA-activated, catalytic subunit)	0.464	1	0.0103	-0.0419	0.0868	inactive
PIK3R5 (phosphoinositide-3-kinase regulatory subunit 5)	0.464	1	-0.00676	0.0509	0.0638	inactive
NTRK3 (neurotrophic receptor tyrosine kinase 3)	0.464	1	-0.0479	-0.0814	-0.121	inactive
TBK1 (TANK binding kinase 1)	0.464	1	-0.0479	-0.0593	0.00432	inactive
BUB1B (BUB1 mitotic checkpoint serine/threonine kinase B)	-1.49	0.926	0.0699	0.0662	-0.00252	inactive
CDKL2 (cyclin dependent kinase like 2)	-0.0954	0.979	-0.0268	0.0258	-0.0236	inactive
DLG1 (discs large MAGUK scaffold protein 1)	0.464	1	-0.0479	0.000382	0.0167	inactive
